These are yes or no findings as the source states them, for the method shown. Binding seen in cells or lysates may run through a third protein. Some binding calls cover weakened binding; strength is not graded here.
How the values were obtained:
[1] = biological target: sortilin (human (endogenous in PC3 and LNCaP)) (UniProt Q99523); test: co-IP; PC3 cells, endogenous proteins; cells cross-linked with 2 mM DSP 1 h at 4 °C, lysed in Pierce IP Lysis Buffer; 500 µg lysate protein with 2-4 µg primary or IgG isotype control antibody overnight at 4 °C, Protein G MicroBeads; prey detected by Western blotting
[2] = biological target: T1, syndecan-1 (human (endogenous in PC3 and LNCaP)) (UniProt P18827); test: as above
T1 sequence: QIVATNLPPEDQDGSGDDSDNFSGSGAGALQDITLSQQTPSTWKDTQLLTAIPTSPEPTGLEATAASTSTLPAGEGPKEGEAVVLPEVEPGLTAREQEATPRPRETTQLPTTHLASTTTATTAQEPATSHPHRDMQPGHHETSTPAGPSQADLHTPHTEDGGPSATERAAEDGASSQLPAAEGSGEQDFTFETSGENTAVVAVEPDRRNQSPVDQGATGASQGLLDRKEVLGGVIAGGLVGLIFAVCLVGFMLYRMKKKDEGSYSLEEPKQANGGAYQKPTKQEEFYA

The chains behind the UniProt entries cited, without tags or fusion partners. Residues count along the entry.
UniProt Q99523, residues 78-831: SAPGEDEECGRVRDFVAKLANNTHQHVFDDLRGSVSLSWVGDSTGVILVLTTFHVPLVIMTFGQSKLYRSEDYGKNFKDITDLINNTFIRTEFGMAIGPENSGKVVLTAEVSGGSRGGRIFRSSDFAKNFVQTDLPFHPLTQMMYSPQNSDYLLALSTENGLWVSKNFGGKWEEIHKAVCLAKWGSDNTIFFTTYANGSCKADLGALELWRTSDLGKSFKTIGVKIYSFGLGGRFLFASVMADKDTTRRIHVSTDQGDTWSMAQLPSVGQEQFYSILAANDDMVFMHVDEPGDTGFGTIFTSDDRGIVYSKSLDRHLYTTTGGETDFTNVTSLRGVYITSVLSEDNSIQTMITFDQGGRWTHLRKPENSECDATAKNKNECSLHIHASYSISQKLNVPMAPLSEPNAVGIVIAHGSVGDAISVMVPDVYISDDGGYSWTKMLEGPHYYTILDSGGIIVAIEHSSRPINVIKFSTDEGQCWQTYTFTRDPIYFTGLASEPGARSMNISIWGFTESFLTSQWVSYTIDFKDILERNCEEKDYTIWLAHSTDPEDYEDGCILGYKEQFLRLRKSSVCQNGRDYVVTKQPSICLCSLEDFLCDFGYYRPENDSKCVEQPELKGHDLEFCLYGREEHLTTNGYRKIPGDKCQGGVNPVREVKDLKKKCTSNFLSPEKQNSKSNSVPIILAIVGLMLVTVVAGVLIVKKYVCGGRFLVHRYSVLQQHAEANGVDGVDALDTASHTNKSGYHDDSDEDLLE

[3] = biological target: sortilin (human (endogenous in PC3 and LNCaP)) (UniProt Q99523); test: co-IP; LNCaP cells, endogenous proteins; cells cross-linked with 2 mM DSP 1 h at 4 °C, lysed in Pierce IP Lysis Buffer; 500 µg lysate protein with 2-4 µg primary or IgG isotype control antibody overnight at 4 °C, Protein G MicroBeads; prey detected by Western blotting
[4] = biological target: T1, syndecan-1 (human (endogenous in PC3 and LNCaP)); test: as above

Measured: binding

B1: lipoprotein lipase (enzyme, UniProt P06858 28-475)
chain: ADQRRDFIDIESKFALRTPEDTAEDTCHLIPGVAESVATCHFNHSSKTFMVIHGWTVTGMYESWVPKLVAALYKREPDSNVIVVDWLSRAQEHYPVSAGYTKLVGQDVARFINWMEEEFNYPLDNVHLLGYSLGAHAAGIAGSLTNKKVNRITGLDPAGPNFEYAEAPSRLSPDDADFVDVLHTFTRGSPGRSIGIQKPVGHVDIYPNGGTFQPGCNIGEAIRVIAERGLGDVDQLVKCSHERSIHLFIDSLLNEENPSKAYRCSSKEAFEKGLCLSCRKNRCNNLGYEINKVRAKRSSKMYLKTRSQMPYKVFHYQVKIHFSGTESETHTNQAFEISLYGTVAESENIPFTLPEVSTNKTYSFLIYTEVDIGELLMLKLKWKSDSYFSWSDWWSSPGFAIQKIRVKAGETQKKVIFCSREKVSHLQKGKAPAVFVKCHDKSLNKKSG
binds: all assays above

— publication PMC10439187
